According to US10947275B2 (Ben-Gurion University of the Negev Research and Development …, priority 2010, dated 2021):

Experiment: general procedure: Fmoc solid-phase peptide synthesis; MBHA Resin; HBTU, DIPEA
Details: whole synthesis, analytical HPLC (Dionex), NMR, LCMS

## Ac-KRRMK^NvocWK^NvocK^Nvoc
  final HPLC purity: >90%
